# PubChem BioAssay AID1159578 | Peter MacCallum Cancer Centre, 2015
# Aim: 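Genome-wide hunt for genes controlling movement of lymphatic endothelial cells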 (primary screen)
# Cell system: human lymphatic endothelial cells
# Knock-down reagent: siRNA pool against human genes, 40 nM
# Duration: 48 h after transfection
# Measurement: 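High-content imaging of dye-stained cells in a scratch assay measures filled wound area and nuclei per well; duplicate means given as ratio to mock and robust z-score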
# Direction: migration robust z-score: higher = faster migration into the scratch; nuclei per well: higher = more cells in the well
# Hit rule: 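Migration changed when robust z exceeds 2 or falls below -2 and mean nuclei number is at least 3300; otherwise not called changed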
# Calls: active = migration changed; inactive = no migration change, or too few cells
# The whole screen tested about 18,000 reagents; below is a random part of them. About 1,030 of them (5.7%) were called active. 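Inactive calls also include pools with fewer than 3300 nuclei, whose migration was not assessed.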 Raw values vary from plate to plate and are shown uncorrected. Further read-outs or replicates are left out here.
target,migration robust z-score,migration class with cell-count check,"nuclei per well, duplicate mean",Outcome
SARDH,-0.8,migration z between -2 and 2; enough cells,5947,inactive
ACRBP,-5.51,under 3300 nuclei; migration not judged,700,inactive
HLA-DRB3,0.48,migration z between -2 and 2; enough cells,5282,inactive
EDAR,-0.78,migration z between -2 and 2; enough cells,6940,inactive
POU3F3,-0.24,migration z between -2 and 2; enough cells,6578,inactive
CBLN2,1.56,migration z between -2 and 2; enough cells,5702,inactive
ANGPTL7,-0.96,migration z between -2 and 2; enough cells,4986,inactive
ALDH16A1,-0.52,migration z between -2 and 2; enough cells,5796,inactive
RRS1,-0.18,migration z between -2 and 2; enough cells,5378,inactive
TPT1,-1.54,migration z between -2 and 2; enough cells,4668,inactive
COL26A1,-0.36,migration z between -2 and 2; enough cells,6063,inactive
ASAP3,0.64,migration z between -2 and 2; enough cells,5488,inactive
HPS6,0.7,migration z between -2 and 2; enough cells,5520,inactive
RABIF,-0.44,migration z between -2 and 2; enough cells,6518,inactive
FOXD4L6,0.21,migration z between -2 and 2; enough cells,5970,inactive
DNMT3B,-1.84,migration z between -2 and 2; enough cells,5634,inactive
TUBB1,0.36,migration z between -2 and 2; enough cells,5838,inactive
CMAS,0.29,migration z between -2 and 2; enough cells,5543,inactive
ALG14,1,migration z between -2 and 2; enough cells,5113,inactive
SLC39A2,-0.62,migration z between -2 and 2; enough cells,4699,inactive
TMEM63C,-2.32,migration z below -2; enough cells,4602,active
HIPK1,-2.26,migration z below -2; enough cells,4028,active
GSDME,-0.04,migration z between -2 and 2; enough cells,6905,inactive
PDE4DIP,0.44,migration z between -2 and 2; enough cells,6376,inactive

Reformatted: results already given
| target | migration robust z-score | migration class with cell-count check | nuclei per well, duplicate mean | Outcome |
| --- | --- | --- | --- | --- |
| CMAS | 0.29 | migration z between -2 and 2; enough cells | 5543 | inactive |
| ALG14 | 1 | migration z between -2 and 2; enough cells | 5113 | inactive |
| SLC39A2 | -0.62 | migration z between -2 and 2; enough cells | 4699 | inactive |

Additional reagents follow.
target,migration robust z-score,migration class with cell-count check,"nuclei per well, duplicate mean",Outcome
JUP,0.71,migration z between -2 and 2; enough cells,6162,inactive
GSDMD,-1.44,migration z between -2 and 2; enough cells,5922,inactive
NFIB,-0.39,migration z between -2 and 2; enough cells,4588,inactive
IGFBP2,-1.02,migration z between -2 and 2; enough cells,5177,inactive
AVP,-2.57,under 3300 nuclei; migration not judged,1974,inactive
UXS1,-0.34,migration z between -2 and 2; enough cells,7003,inactive
COMMD5,1.6,migration z between -2 and 2; enough cells,5834,inactive
PEX7,0.42,migration z between -2 and 2; enough cells,6840,inactive
HOXC5,-4.1,migration z below -2; enough cells,4503,active
P2RY6,0.36,migration z between -2 and 2; enough cells,6666,inactive
GPR143,-0.34,migration z between -2 and 2; enough cells,5850,inactive
ZNF2,0.21,migration z between -2 and 2; enough cells,7026,inactive
COL9A1,-0.34,migration z between -2 and 2; enough cells,3904,inactive
RIPOR3,-0.24,migration z between -2 and 2; enough cells,6312,inactive
RPS11,-0.72,migration z between -2 and 2; enough cells,4524,inactive
